Holding throughout (experiment): protein microarray (ProtoArray v5.0), streptavidin-Alexa Fluor 647
Conditions in all cases: 3'-biotin; 20 mM Tris (pH 7.5), 5 mM MgCl2, 100 mM KCl, 0.1% Tween-20, A/T-rich and random oligonucleotide blockers; temperature not stated; high values mean tight binding

For assay [1], the system named is MGC10997 (human).
The test system of assay [2] is MGC13057 (human).
Assay [3] concerns MGC15705 (human).
The test system of assay [4] is MGC21675 (human).
Assay [5] deals with MGC23270 (human).
Assay [6] has as its system MGC23985 (human).
The subject of assay [7] is MGC24103 (human).
For assay [8], the system named is MGC24125 (human).
Assay [9] has as its system MGC26733 (human).
For assay [10], the system named is MGC29506 (human).
The test system of assay [11] is MGC33407 (human).
Assay [12] has as its system MGC35023 (human).
Assay [13] has as its system MGC42105 (human).
The test system of assay [14] is MGC50273 (human).
Assay [15] relates to MGC59937 (human).
For assay [16], the system named is MGRN1 (human).
Assay [17] has as its system MGST2 (human).
The subject of assay [18] is MIER1 (human).
Assay [19] deals with MIF (human).
Assay [20] concerns MIR16 (human).

The list shows a part of the results.

Regarding “GGGAGGCTGAGGCAGG [G4-1 biotinylated (PQS2)]”, the binding signal is -0.319 z-score in assay [1]; -0.346 z-score in assay [2]; -0.287 z-score in assay [3]; -0.275 z-score in assay [4]; -0.349 z-score in [5]; -0.347 z-score in assay [6]. Further, the binding signal is -0.357 z-score in assay [7]; -0.338 z-score in assay [8]; -0.311 z-score in assay [9]; -0.341 z-score in assay [10]; -0.28 z-score in [11]; -0.308 z-score in assay [12]. Also, the binding signal in assay [13] is -0.291 z-score; in assay [14] it was -0.289 z-score; in assay [15] it was -0.315 z-score; in assay [16], -0.351 z-score; in [17], -0.335 z-score; in assay [18], -0.339 z-score. For the same sequence, the binding signal in assay [19] is -0.321 z-score; in [20], -0.343 z-score.

The values are drawn from PMC5996148.
